Laboratory results from paper PMC11297269.

Sequences of proteins named here, by UniProt entry; tags and fusion partners are left off.
UniProt P25098: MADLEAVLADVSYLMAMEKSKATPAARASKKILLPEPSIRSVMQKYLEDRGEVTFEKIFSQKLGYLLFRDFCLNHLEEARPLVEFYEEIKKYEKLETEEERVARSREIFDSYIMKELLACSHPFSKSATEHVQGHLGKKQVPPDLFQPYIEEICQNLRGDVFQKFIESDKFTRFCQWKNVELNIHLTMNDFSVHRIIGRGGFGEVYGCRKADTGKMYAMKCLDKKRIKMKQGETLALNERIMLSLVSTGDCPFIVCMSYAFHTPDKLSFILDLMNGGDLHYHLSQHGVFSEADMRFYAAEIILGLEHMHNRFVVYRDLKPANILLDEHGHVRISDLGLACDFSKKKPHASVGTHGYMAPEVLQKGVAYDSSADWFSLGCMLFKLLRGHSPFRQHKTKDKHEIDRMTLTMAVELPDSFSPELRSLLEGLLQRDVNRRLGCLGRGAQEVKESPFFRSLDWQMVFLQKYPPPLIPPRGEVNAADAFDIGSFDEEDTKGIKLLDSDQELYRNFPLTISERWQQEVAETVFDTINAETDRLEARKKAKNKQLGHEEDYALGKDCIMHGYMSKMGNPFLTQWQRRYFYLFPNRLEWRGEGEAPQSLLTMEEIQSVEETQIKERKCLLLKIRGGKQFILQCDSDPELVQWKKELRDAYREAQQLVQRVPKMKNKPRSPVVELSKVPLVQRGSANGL
UniProt Q9Y6I3: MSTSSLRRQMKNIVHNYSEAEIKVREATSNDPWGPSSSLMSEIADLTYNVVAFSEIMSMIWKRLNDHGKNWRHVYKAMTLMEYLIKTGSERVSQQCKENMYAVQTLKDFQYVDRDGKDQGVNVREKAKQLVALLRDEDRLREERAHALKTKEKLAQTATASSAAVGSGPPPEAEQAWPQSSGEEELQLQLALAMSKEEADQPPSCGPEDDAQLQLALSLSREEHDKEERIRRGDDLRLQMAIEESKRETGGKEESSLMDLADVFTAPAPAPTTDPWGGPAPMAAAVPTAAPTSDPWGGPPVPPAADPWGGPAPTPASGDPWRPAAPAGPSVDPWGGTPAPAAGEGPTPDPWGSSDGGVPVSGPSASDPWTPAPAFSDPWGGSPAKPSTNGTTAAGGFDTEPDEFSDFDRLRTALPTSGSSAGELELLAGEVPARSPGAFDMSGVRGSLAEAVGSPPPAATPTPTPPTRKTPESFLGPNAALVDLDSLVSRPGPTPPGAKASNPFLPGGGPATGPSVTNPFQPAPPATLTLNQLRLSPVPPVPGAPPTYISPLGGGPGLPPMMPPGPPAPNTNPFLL
UniProt Q05655: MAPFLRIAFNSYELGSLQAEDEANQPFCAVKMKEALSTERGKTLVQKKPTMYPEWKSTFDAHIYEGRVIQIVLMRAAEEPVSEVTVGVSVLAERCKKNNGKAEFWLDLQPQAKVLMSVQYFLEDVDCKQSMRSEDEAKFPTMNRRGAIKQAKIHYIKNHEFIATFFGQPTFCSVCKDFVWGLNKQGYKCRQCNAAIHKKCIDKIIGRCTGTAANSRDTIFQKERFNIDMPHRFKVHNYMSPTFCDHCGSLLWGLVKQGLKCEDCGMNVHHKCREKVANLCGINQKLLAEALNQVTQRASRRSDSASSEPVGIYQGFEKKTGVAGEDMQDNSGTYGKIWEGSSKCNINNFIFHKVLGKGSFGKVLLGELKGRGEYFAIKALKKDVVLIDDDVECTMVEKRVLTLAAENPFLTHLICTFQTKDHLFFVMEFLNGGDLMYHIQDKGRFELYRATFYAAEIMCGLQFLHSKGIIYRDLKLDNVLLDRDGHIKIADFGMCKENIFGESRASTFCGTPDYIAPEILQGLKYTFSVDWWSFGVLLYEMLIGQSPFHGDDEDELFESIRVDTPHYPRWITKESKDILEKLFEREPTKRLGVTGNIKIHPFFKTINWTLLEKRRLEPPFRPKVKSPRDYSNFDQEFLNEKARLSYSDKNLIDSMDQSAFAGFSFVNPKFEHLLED
UniProt P07355: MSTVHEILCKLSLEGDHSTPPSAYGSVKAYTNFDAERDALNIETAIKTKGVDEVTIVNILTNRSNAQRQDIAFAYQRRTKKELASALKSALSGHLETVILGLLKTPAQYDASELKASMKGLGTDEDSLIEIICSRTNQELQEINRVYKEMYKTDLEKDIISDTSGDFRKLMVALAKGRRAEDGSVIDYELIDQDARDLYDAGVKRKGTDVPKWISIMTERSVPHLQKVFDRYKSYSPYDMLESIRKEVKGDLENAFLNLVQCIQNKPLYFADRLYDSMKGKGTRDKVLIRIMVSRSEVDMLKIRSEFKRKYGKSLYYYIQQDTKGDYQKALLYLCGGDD
UniProt P60903: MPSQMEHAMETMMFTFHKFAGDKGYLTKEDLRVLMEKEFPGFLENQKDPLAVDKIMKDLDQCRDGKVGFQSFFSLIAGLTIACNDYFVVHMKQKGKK
UniProt Q04759: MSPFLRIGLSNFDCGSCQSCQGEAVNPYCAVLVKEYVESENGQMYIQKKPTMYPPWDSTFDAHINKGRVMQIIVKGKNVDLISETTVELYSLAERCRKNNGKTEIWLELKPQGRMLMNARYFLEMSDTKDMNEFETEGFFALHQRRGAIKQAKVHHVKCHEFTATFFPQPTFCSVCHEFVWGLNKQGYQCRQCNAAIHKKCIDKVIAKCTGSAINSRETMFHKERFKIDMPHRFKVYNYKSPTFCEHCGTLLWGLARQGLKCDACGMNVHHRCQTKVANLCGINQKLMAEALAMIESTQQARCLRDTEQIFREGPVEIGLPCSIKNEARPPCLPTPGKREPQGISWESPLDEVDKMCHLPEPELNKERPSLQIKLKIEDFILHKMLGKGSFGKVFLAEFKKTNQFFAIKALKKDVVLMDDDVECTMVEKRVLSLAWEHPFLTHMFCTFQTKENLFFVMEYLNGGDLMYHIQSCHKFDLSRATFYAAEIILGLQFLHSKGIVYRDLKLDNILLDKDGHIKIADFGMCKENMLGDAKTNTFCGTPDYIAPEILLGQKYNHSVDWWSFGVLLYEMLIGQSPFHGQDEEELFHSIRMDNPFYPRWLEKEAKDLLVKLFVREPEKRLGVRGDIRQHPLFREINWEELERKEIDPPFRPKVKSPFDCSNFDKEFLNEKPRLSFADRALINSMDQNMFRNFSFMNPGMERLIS
UniProt Q9NSY1: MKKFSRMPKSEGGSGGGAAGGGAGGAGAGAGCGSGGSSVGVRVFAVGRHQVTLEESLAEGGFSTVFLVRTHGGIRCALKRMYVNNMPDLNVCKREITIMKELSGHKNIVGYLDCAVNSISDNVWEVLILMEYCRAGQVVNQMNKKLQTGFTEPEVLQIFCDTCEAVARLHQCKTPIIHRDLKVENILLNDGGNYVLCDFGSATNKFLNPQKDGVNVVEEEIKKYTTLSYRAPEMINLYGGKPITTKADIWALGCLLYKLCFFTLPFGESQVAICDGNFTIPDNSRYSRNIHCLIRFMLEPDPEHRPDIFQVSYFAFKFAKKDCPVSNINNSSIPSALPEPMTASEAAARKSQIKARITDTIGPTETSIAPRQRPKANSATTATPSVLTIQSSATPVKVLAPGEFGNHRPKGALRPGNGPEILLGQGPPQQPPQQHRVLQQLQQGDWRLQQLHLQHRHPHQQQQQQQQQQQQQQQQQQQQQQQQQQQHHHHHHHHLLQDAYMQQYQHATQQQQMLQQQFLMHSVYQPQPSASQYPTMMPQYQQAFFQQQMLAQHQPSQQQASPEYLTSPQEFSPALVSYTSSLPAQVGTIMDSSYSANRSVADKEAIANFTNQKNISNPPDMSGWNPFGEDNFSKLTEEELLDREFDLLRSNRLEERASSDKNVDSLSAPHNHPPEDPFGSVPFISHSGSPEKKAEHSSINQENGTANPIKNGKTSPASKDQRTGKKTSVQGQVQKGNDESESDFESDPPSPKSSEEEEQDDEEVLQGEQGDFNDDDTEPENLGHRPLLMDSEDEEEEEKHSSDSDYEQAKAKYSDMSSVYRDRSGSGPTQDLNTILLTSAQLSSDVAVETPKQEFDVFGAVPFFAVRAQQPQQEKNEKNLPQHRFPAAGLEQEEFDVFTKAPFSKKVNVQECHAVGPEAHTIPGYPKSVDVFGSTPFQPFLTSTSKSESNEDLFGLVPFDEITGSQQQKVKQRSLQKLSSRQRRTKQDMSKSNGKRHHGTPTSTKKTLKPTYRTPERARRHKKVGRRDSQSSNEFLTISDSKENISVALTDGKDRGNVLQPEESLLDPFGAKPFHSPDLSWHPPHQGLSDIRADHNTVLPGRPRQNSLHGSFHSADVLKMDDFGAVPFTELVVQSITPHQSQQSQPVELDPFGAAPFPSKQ
UniProt Q13574: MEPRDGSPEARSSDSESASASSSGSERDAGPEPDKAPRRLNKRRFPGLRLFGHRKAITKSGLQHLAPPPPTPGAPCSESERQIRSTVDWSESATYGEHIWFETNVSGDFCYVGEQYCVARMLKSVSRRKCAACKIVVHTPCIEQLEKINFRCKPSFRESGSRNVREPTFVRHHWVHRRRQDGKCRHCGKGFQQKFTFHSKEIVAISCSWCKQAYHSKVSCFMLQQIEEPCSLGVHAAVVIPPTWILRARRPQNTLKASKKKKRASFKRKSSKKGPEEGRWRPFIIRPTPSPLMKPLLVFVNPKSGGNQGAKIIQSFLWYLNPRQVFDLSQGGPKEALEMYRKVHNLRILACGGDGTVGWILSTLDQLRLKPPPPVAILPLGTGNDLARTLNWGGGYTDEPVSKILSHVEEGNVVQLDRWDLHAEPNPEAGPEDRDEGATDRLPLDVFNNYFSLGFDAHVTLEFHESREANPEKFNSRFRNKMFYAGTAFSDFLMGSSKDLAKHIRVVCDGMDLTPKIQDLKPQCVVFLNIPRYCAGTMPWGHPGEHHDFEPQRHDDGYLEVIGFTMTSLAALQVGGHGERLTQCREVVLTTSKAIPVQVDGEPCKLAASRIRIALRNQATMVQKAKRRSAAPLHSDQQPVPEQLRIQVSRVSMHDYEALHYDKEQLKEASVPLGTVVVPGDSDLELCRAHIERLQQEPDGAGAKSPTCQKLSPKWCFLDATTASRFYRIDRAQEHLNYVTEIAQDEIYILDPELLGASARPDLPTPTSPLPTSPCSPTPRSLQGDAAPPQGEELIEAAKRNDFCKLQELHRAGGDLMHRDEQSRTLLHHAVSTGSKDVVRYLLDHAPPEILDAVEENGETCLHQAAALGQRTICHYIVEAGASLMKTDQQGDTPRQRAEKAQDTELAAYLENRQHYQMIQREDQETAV

B1: mannose 6-phosphate receptor (receptor, UniProt P20645 27-277)
chain: TEEKTCDLVGEKGKESEKELALVKRLKPLFNKSFESTVGQGSDTYIYIFRVCREAGNHTSGAGLVQINKSNGKETVVGRLNETHIFNGSNWIMLIYKGGDEYDNHCGKEQRRAVVMISCNRHTLADNFNPVSEERGKVQDCFYLFEMDSSLACSPEISHLSVGSILLVTFASLVAVYVVGGFLYQRLVVGAKGMEQFPHLAFWQDLGNLVADGCDFVCRSKPRNVPAAYRGVGDDQLGEESEERDDHLLPM
B2: Epsin-2 (protein, UniProt O95208 1-641)
chain: MTTSSIRRQMKNIVNNYSEAEIKVREATSNDPWGPSSSLMTEIADLTYNVVAFSEIMSMVWKRLNDHGKNWRHVYKALTLLDYLIKTGSERVAQQCRENIFAIQTLKDFQYIDRDGKDQGINVREKSKQLVALLKDEERLKAERAQALKTKERMAQVATGMGSNQITFGRGSSQPNLSTSHSEQEYGKAGGSPASYHGSPEASLCPQHRTGAPLGQSEELQPLSQRHPFLPHLGLASRPNGDWSQPCLTCDRAARATSPRVSSELEQARPQTSGEEELQLQLALAMSREVAEQEERLRRGDDLRLQMALEESRRDTVKIPKKKEHGSLPQQTTLLDLMDALPSSGPAAQKAEPWGPSASTNQTNPWGGPAAPASTSDPWPSFGTKPAASIDPWGVPTGATVQSVPKNSDPWAASQQPASSAGKRASDAWGAVSTTKPVSVSGSFELFSNLNGTIKDDFSEFDNLRTSKKTAESVTSLPSQNNGTTSPDPFESQPLTVASSKPSSARKTPESFLGPNAALVNLDSLVTRPAPPAQSLNPFLAPGAPATSAPVNPFQVNQPQPLTLNQLRGSPVLGTSTSFGPGPGVESMAVASMTSAAPQPALGATGSSLTPLGPAMMNMVGSVGIPPSAAQATGTTNPFLL
B3: protein kinase D (PRKD2) (enzyme, UniProt Q9BZL6 1-878)
chain: MATAPSYPAGLPGSPGPGSPPPPGGLELQSPPPLLPQIPAPGSGVSFHIQIGLTREFVLLPAASELAHVKQLACSIVDQKFPECGFYGLYDKILLFKHDPTSANLLQLVRSSGDIQEGDLVEVVLSASATFEDFQIRPHALTVHSYRAPAFCDHCGEMLFGLVRQGLKCDGCGLNYHKRCAFSIPNNCSGARKRRLSSTSLASGHSVRLGTSESLPCTAEELSRSTTELLPRRPPSSSSSSSASSYTGRPIELDKMLLSKVKVPHTFLIHSYTRPTVCQACKKLLKGLFRQGLQCKDCKFNCHKRCATRVPNDCLGEALINGDVPMEEATDFSEADKSALMDESEDSGVIPGSHSENALHASEEEEGEGGKAQSSLGYIPLMRVVQSVRHTTRKSSTTLREGWVVHYSNKDTLRKRHYWRLDCKCITLFQNNTTNRYYKEIPLSEILTVESAQNFSLVPPGTNPHCFEIVTANATYFVGEMPGGTPGGPSGQGAEAARGWETAIRQALMPVILQDAPSAPGHAPHRQASLSISVSNSQIQENVDIATVYQIFPDEVLGSGQFGVVYGGKHRKTGRDVAVKVIDKLRFPTKQESQLRNEVAILQSLRHPGIVNLECMFETPEKVFVVMEKLHGDMLEMILSSEKGRLPERLTKFLITQILVALRHLHFKNIVHCDLKPENVLLASADPFPQVKLCDFGFARIIGEKSFRRSVVGTPAYLAPEVLLNQGYNRSLDMWSVGVIMYVSLSGTFPFNEDEDINDQIQNAAFMYPASPWSHISAGAIDLINNLLQVKMRKRYSVDKSLSHPWLQEYQTWLDLRELEGKMGERYITHESDDARWEQFAAEHPLPGSGLPTDRDLGGACPPQDHDMQGLAERISVL

The molecules below were run against APEX2-fused 5HT2A serotonin receptor (UniProt P28223) (assay: proximity labelling; high-input pipeline: APEX2 fused to 5HT2A in live HEK293T cells (10 cm dish); 0.1 µM 5HT for 0, 1, 5, 10 and 30 min; 500 µM biotin phenol 30 min, H2O2 45 sec; automated streptavidin enrichment, DIA-MS; hits: adjusted p-value < 0.05 over the time course and FC > 1.5).

Molecule | binding
G protein-coupled receptor kinase 2 (from UniProt P25098 1-689) (enzyme) | binds
Epsin-1 (from UniProt Q9Y6I3 1-576) | binds
protein kinase C isoform PKCD (from UniProt Q05655 1-676) (enzyme) | binds
Annexin A2 (from UniProt P07355 1-339) | binds
S100-A10 (from UniProt P60903 1-97) | binds
protein kinase C isoform PKCQ (from UniProt Q04759 1-706) (enzyme) | binds
BMP-2 inducible kinase (from UniProt Q9NSY1 1-1161) (enzyme) | binds
protein kinase C isoform PKCA (from UniProt P17252 1-672) (enzyme) | binds
diacylglycerol kinase zeta (from UniProt Q13574 1-928) (enzyme) | binds
B1 | binds
B2 | binds
B3 | binds

Each molecule was assayed against APEX2-fused 5HT2A serotonin receptor (UniProt P28223) (assay: proximity labelling; low-input pipeline: 5HT2A-APEX2 HEK293T cells in 6-well plates, non-targeting control and CRISPR knockout (ANXA2, S100A10) cells; 0.1 µM 5HT for 0, 1 and 30 min; automated streptavidin enrichment, DIA-MS).

Molecule | binding
AHNAK (from UniProt Q09666 1-5890) | binds
Annexin A2 (from UniProt P07355 1-339) | binds
S100-A10 (from UniProt P60903 1-97) | binds

These are yes or no findings as the source states them, for the method shown. Binding seen in cells or lysates may run through a third protein. These calls come from enrichment with a bait or labelling near it, and not all partners need be listed.
